Taken from: PubChem BioAssay AID1259254 (NCATS, 2017)

Test: 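Finding genes that stop cells copying their DNA twice in one cycle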 (primary screen)
Cells: human HCT116 colorectal cancer cells
Reagent: single siRNA against human genes
Time to read-out: 3 days
Measurement: 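Nuclei stained with Hoechst and imaged; cell-cycle phase assigned by DNA content; G2 share scaled per plate, non-targeting siRNA 0%, GMNN siRNA 100%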
Scale: G2 robust z-score and G2 cells, % of GMNN control: higher = more G2 cells, more excess DNA replication
Rule for the call: 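An siRNA counts as active if its G2 robust z-score lies at least 5 MADs above the screen median; here such calls match roughly 38% of GMNN control or more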
In all, the deposit lists about 59,000 reagents; below is a random part of them. In the full data, about 1,550 (2.6%) are marked active. 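G2 share is only a proxy for re-replication; each gene was hit by three separate siRNAs, and active genes were retested.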 Reagents against one gene are numbered here. Further read-outs or replicates are left out here. Not given: the amount of reagent.

IRGQ #1: G2 robust z-score = -0.385; G2 cells, % of GMNN control = 0.255; call = inactive
IRGQ #2: G2 robust z-score = 8.18; G2 cells, % of GMNN control = 60.5; call = active
IRGQ #3: G2 robust z-score = 0.266; G2 cells, % of GMNN control = 4.84; call = inactive
MIDN #1: G2 robust z-score = 0.424; G2 cells, % of GMNN control = 5.95; call = inactive
MIDN #2: G2 robust z-score = 0.0789; G2 cells, % of GMNN control = 3.52; call = inactive
MIDN #3: G2 robust z-score = -0.313; G2 cells, % of GMNN control = 0.765; call = inactive
MAGOH #1: G2 robust z-score = 1.57; G2 cells, % of GMNN control = 14; call = inactive
MAGOH #2: G2 robust z-score = 0.701; G2 cells, % of GMNN control = 7.9; call = inactive
MAGOH #3: G2 robust z-score = 0.143; G2 cells, % of GMNN control = 3.97; call = inactive
OR8B8 #1: G2 robust z-score = 3.59; G2 cells, % of GMNN control = 28.3; call = inactive
OR8B8 #2: G2 robust z-score = 0.37; G2 cells, % of GMNN control = 5.57; call = inactive
OR8B8 #3: G2 robust z-score = 1.9; G2 cells, % of GMNN control = 16.3; call = inactive
RPA2 #1: G2 robust z-score = -0.776; G2 cells, % of GMNN control = -2.49; call = inactive
RPA2 #2: G2 robust z-score = -0.823; G2 cells, % of GMNN control = -2.83; call = inactive
RPA2 #3: G2 robust z-score = 9.33; G2 cells, % of GMNN control = 68.6; call = active

Records listed above with an active call, once more:
IRGQ #2: G2 robust z-score = 8.18; G2 cells, % of GMNN control = 60.5; call = active
RPA2 #3: G2 robust z-score = 9.33; G2 cells, % of GMNN control = 68.6; call = active

The list goes on:
RAMP3 #1: G2 robust z-score = -1.09; G2 cells, % of GMNN control = -4.73; call = inactive
RAMP3 #2: G2 robust z-score = -1.6; G2 cells, % of GMNN control = -8.32; call = inactive
RAMP3 #3: G2 robust z-score = 6.51; G2 cells, % of GMNN control = 48.8; call = active
HOXD4 #1: G2 robust z-score = -0.379; G2 cells, % of GMNN control = 0.301; call = inactive
HOXD4 #2: G2 robust z-score = 1.29; G2 cells, % of GMNN control = 12; call = inactive
HOXD4 #3: G2 robust z-score = -0.393; G2 cells, % of GMNN control = 0.204; call = inactive
AMER2 #1: G2 robust z-score = 1.11; G2 cells, % of GMNN control = 10.7; call = inactive
AMER2 #2: G2 robust z-score = -0.409; G2 cells, % of GMNN control = 0.0932; call = inactive
AMER2 #3: G2 robust z-score = 0.508; G2 cells, % of GMNN control = 6.54; call = inactive
